Source: patent US9757380B2 (Southern Research Institute, priority 2007, dated 2017)
For at least one compound, name, drawing or mass did not settle the structure.

What was measured:
NCI-H460 NSCL (lung) = test: NCI-H460 NSCL lung xenograph model, clofarabine combined with radiation; assay type: in vivo, mice; settings: NCI-H460 lung tumors
Source text: (§1) Xenograph models including DU-145 (prostate), NCI-H460 NSCL (lung), SF-295 CNS (glioblastoma), SR475HN (head and neck), PANC-1 (pancreatic), and HCT-116 (colon) are employed to study the effect of compounds according to the instant disclosure combined with radiation therapy. Mice are implanted with tumor fragments subcutaneously from an in vivo passage and the tumors are allowed to grow. Mice with tumors in a designated size range are selected for the studies.

DLD-1 human colon tumors = test: Colon cancer xenograft assay; assay type: in vivo, male athymic nu/nu mice; settings: DLD-1 s.c. in male athymic mice; clofarabine alone or plus radiation 3 Gy per treatment; FIG. 5 and 6
HCT-116 (colon) = test: HCT-116 colon xenograph model, clofarabine combined with radiation; assay type: in vivo, mice; settings: HCT-116 colon tumors
Source text: as §1

PANC-1 (pancreatic) = test: PANC-1 pancreatic xenograph model, clofarabine combined with radiation; assay type: in vivo, mice; settings: PANC-1 pancreatic tumors
Source text: as §1

SKOV-3 cells = test: Clonogenic survival assay, SKOV-3; assay type: cell-based; settings: SKOV-3, cisplatin-resistant cell line; drug for 24 hours; FIG. 8
DU-145 (prostate) = test: DU-145 prostate xenograph model, clofarabine combined with radiation; assay type: in vivo, mice; settings: DU-145 prostate xenografts
Source text: as §1

SR475HN (head and neck) = test: SR475HN head and neck xenograph model, clofarabine combined with radiation; assay type: in vivo, mice
Source text: as §1

HeLa cells [1] = test: Radiosensitivity colony-forming assay; assay type: cell-based; settings: clofarabine 0-1,000 nM 4 hours prior to 2-Gy irradiation, additional 20 hours, FIG. 3
HeLa cells [2] = test: γ-H2AX focus formation assay; assay type: cell-based; settings: HeLa cells treated with clofarabine for one hour, irradiated with 0 or 6 Gy; FIG. 1 and 2
IGROV-1 cells = test: Clonogenic survival assay, IGROV-1; assay type: cell-based; settings: drug for 24 hours, FIG. 9

Nc1nc(Cl)nc2c1ncn2[C@@H]1O[C@H](CO)[C@@H](O)[C@@H]1F [Clofarabine]
combined effect of clofarabine and radiation (NCI-H460 NSCL (lung)): appeared to be additive | sensitization of tumors to radiation in vivo (tumor weight) (DLD-1 human colon tumors): sensitizes tumors to radiation in vivo | radiosensitization of tumors (HCT-116 (colon)): radiosensitized | radiosensitization of tumors (PANC-1 (pancreatic)): radiosensitized | tumor cell killing compared with cisplatin (SKOV-3 cells): significant tumor cell killing compared with cisplatin | interaction between clofarabine and radiation (DU-145 (prostate)): no difference between radiation alone and radiation combined with clofarabine | radiosensitization of tumors (SR475HN (head and neck)): radiosensitized | cellular radiosensitivity (colony-forming survival) (HeLa cells [1]): increases cellular radiosensitivity | effect on IR-induced γ-H2AX foci (HeLa cells [2]): prolongs the existence of IR-induced γ-H2AX foci | activity compared with cisplatin (IGROV-1 cells): increased activity in IGROV-1 cells compared with cisplatin
